Laboratory results as given in publication PMC8138766.
Results are given in words; binding and its absence hold for the method and conditions named. Binding seen in cells or lysates may run through a third protein. Binding calls can cover weak binding; strength is not graded here. Where a sequence is shown, tags or fusion partners need not be part of it.

Biological target: T1, Rav2-FLAG (yeast) (UniProt Q03956)
T1 sequence: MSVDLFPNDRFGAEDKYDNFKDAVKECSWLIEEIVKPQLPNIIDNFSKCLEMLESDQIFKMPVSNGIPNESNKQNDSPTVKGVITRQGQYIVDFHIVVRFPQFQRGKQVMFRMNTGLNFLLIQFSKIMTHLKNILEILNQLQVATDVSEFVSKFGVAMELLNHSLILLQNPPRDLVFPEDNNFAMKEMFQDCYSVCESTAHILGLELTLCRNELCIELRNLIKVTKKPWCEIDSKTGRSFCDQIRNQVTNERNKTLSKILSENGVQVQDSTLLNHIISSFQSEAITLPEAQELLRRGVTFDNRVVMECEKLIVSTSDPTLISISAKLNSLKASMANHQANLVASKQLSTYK
Experiment: co-IP; anti-FLAG M2 affinity column on cleared lysate of galactose-induced yeast (bait Rav2-FLAG), PBS or TBSE pH 7.4, elution with FLAG peptide; Coomassie SDS-PAGE and immunoblots for V1 subunits A, B and C

With “V1 subcomplex of the V-ATPase (cytosolic V1 complex) (yeast (endogenous))” the binding was “binds”.
